Data taken from PMC9317998.
Results are given in words; binding and its absence hold for the method and conditions named. Binding seen in cells or lysates may run through a third protein. Some entries that bind do so weakly or less than the wild type. Where a sequence is shown, tags or fusion partners need not be part of it.

Chains of the proteins cited; added tags and fusions are not shown.
UniProt Q13555: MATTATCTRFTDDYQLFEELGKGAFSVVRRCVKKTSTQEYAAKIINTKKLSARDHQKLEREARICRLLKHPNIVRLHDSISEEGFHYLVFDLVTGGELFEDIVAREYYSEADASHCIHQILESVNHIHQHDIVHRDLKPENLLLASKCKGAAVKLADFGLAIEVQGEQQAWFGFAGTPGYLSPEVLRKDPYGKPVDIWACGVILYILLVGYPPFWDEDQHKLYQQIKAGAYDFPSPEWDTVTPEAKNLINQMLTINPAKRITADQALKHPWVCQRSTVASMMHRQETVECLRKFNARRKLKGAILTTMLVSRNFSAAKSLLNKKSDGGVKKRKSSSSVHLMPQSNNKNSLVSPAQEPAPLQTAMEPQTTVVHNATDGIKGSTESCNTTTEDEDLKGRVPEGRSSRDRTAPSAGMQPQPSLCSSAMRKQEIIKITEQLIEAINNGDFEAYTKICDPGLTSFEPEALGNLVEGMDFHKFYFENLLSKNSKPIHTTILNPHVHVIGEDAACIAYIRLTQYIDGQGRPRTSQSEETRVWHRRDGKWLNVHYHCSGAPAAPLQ

Columns and labels:
HA-CaMKIIγ [1] = molecular target: HA-CaMKIIγ (UniProt Q13555); assay: proximity ligation; MBMECs transfected with FLAG-MEKK3 and HA-CaMKIIγ plasmids; treated with DMSO or Yoda1 (5 μM) for 1 and 2 h, 48 h after transfection; the PLA signal rose with Yoda1 over time
HA-CaMKIIγ [2] = molecular target: HA-CaMKIIγ (UniProt Q13555); assay: co-IP; HEK293T cells transfected with Flag-MEKK3 and HA-CaMKII isoforms; lysis buffer 50 mM Tris-HCl pH 7.4, 100 mM NaCl, 10% glycerol, 0.5% NP-40, 1 mM DTT, 1 mM PMSF; anti-HA magnetic beads, 4 °C overnight; western blotting

- binding (HA-CaMKIIγ [1]): binds
- binding (HA-CaMKIIγ [2]): binds
B1: Flag-MEKK3 (protein, UniProt Q99759 1-626)
chain: MDEQEALNSIMNDLVALQMNRRHRMPGYETMKNKDTGHSNRQSDVRIKFEHNGERRIIAFSRPVKYEDVEHKVTTVFGQPLDLHYMNNELSILLKNQDDLDKAIDILDRSSSMKSLRILLLSQDRNHNSSSPHSGVSRQVRIKASQSAGDINTIYQPPEPRSRHLSVSSQNPGRSSPPPGYVPERQQHIARQGSYTSINSEGEFIPETSEQCMLDPLSSAENSLSGSCQSLDRSADSPSFRKSRMSRAQSFPDNRQEYSDRETQLYDKGVKGGTYPRRYHVSVHHKDYSDGRRTFPRIRRHQGNLFTLVPSSRSLSTNGENMGLAVQYLDPRGRLRSADSENALSVQERNVPTKSPSAPINWRRGKLLGQGAFGRVYLCYDVDTGRELASKQVQFDPDSPETSKEVSALECEIQLLKNLQHERIVQYYGCLRDRAEKTLTIFMEYMPGGSVKDQLKAYGALTESVTRKYTRQILEGMSYLHSNMIVHRDIKGANILRDSAGNVKLGDFGASKRLQTICMSGTGMRSVTGTPYWMSPEVISGEGYGRKADVWSLGCTVVEMLTEKPPWAEYEAMAAIFKIATQPTNPQLPSHISEHGRDFLRRIFVEARQRPSAEELLTHHFAQLMY
